The assay has as its target S-nitrosoglutathione reductase (GSNOR) (Homo sapiens, UniProt P11766). Briefly: GSNOR assay (inhibition of GSNOR activity, NADH absorbance at 340 nm). Format: biochemical. Particulars: read-out: IC50 range; GSNOR inhibitor activity, Tables 1-6.

Protein sequences, listed by entry. Tags and fused reporters are not part of them.
UniProt P11766, whole entry: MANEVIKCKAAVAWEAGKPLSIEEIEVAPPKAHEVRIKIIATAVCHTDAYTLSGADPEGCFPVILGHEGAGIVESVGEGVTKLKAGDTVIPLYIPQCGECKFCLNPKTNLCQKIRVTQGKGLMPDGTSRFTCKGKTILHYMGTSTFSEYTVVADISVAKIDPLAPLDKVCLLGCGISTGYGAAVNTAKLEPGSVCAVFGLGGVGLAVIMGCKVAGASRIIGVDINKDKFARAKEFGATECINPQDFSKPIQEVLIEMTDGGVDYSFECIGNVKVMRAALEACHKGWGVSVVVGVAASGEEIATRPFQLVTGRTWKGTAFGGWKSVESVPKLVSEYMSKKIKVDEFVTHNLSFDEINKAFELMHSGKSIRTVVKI

The source of these data is patent US20140094465A1, “Compounds as S-Nitrosoglutathione Reductase Inhibitors” (N30 PHARMACEUTICALS, INC., priority 2011, published 2014).

pIC50: −log10 of the molar value. The match of structure and compound is tentative.

The pIC50 is the IC50 on a negative log10 scale, so that one unit is a factor of ten. Turning to `O=C(O)c1ccc(NS(=O)(=O)c2ccc(O)c(F)c2)cc1`, the pIC50 is 5.00 to 6.00.
